{"source": "patent US11266663B2", "about": "“Treatment of neuropsychiatric disorders with neurosteroids and analogues thereof” (THE BOARD OF TRUSTEES OF THE UNIVERSITY OF ILLINOIS, priority 2017, dated 2022)", "tested_on": "early and late adolescent SI mice", "experiment": "Resident-intruder test, aggressive behavior of socially isolated (SI) mice", "format": "in vivo, Swiss-Webster mice", "conditions": "for “Non-responders” Early SI mice (%) / “Non-responders” Late SI mice (%): decrease of aggression <=30% vs basal; for EC50 dose, decrease of aggression: i.p., 60 min before test", "from_the_text": "Male Swiss-Webster mice (Harlan Breeders) (18-30 g body weight), maintained under a 12-h dark/light cycle with food and water ad libitum were used for all experiments. Mice were housed individually in a cage of dimensions 24 cm×17 cm×12 cm. For these experiments, two mice experimental groups were used for the study of drug effect in different age conditions. The first group was isolated at 21 days (“early adolescent SI mice,” PND 21), while the second group at 45 days (“late adolescent SI mice,” PND 45). The animals were exposed to behavioral testing after 6 weeks of isolation. The vivarium temperature was kept at 24° C. and the humidity near 65%.\n[…] All the drugs were dissolved in saline solution containing 0.5% Tween-80 (Sigma Aldrich, St. Louis, Mo., United States), and were injected intraperitoneally (i.p.), 60 min before behavioral tests.\nTo test aggression, a male intruder mouse of the same strain as the resident mouse, was placed in a resident home cage (24 cm×17 cm×12 cm) and resident-intruder interactions were videotaped for 10 min. Aggressive behavior of SI mice was characterized by an initial pattern of exploratory activity around the intruder, followed by rearing and tail rattle, accompanied within a few seconds by wrestling and/or a violent biting attacks. The total number of wrestling and attacks during the 10 min observation period was measured as previously described (Pinna et al., 2003, 2005), 60 min after drug administration. For every drug studied, SI mice were first exposed to three behavioral sessions, and then the average of basal aggression level for every single SI mouse was calculated; 2 days later, aggression levels following treatment were tested. Treated animals showing a reduction of the number of attacks less than 30% vs. the respective basal control values were considered as “low- to non-responders.”\nResults are presented as means±SEMs unless otherwise indicated. Student's t-test, one-way ANOVA and two-way ANOVA repeated measures followed by Bonferroni post hoc test were performed to analyze experimental data; significance was set at p<0.05. EC50 values were calculated from dose-response curves analyzed by the “quantal dose-response: probits test” using the computer program of Tallarida and Murray equipped with a statistical package (Tallarida and Murray, 1987). Statistical comparisons among the different ECsos were performed with the “cohort package software.” (available at cohort.com).", "key": {"[1]": {"conditions": "single dose 0.375 mg/kg (given in mg)"}, "[2]": {"conditions": "single dose 0.75 mg/kg (given in mg)"}, "[3]": {"conditions": "single dose 1.5 mg/kg (given in mg), 1.5 mg/kg"}}, "note": "Several values for one entry are separate records, joined by “and”; a condition that tells them apart may be missing. Equal entries are not always repeated.", "data": [{"smiles": "CNCC[C@H](Oc1ccc(C(F)(F)F)cc1)c1ccccc1", "note": "[S-FLX, S-fluoxetine, reference compound]", "values": [{"measurement": "difference of anti-aggressive effect, late compared with early SI mice", "setting": "1.5 mg/kg i.p.", "value": "+316%"}, {"measurement": "“Non-responders” Early SI mice (%)", "setting": "[1]", "value": 64.3, "unit": "%"}, {"measurement": "“Non-responders” Early SI mice (%)", "setting": "[2]", "value": 53.3, "unit": "%"}, {"measurement": "“Non-responders” Early SI mice (%)", "setting": "[3]", "value": "22.22% and 22.2%"}, {"measurement": "EC50 dose, decrease of aggression", "setting": "early adolescent SI mice (PND 21)", "value": "> 1.5", "unit": "mg/kg"}, {"measurement": "“Non-responders” Late SI mice (%)", "setting": "[1]", "value": 64.3, "unit": "%"}, {"measurement": "“Non-responders” Late SI mice (%)", "setting": "[2]", "value": 23.1, "unit": "%"}, {"measurement": "“Non-responders” Late SI mice (%)", "setting": "[3]", "value": "11.64% and 11.8%"}, {"measurement": "EC50 dose, decrease of aggression", "setting": "late adolescent SI mice (PND 45)", "value": 0.85, "unit": "mg/kg"}]}]}
